Experimental data: US20170058032A1 (published 2017)
These are yes or no findings as the source states them, for the method shown. Some binding calls cover weakened binding; strength is not graded here.

The chains behind the UniProt entries cited, without tags or fusion partners. Where a name states a change or a piece, a line headed by the entry shows the natural chain unless it says otherwise.
UniProt P40259: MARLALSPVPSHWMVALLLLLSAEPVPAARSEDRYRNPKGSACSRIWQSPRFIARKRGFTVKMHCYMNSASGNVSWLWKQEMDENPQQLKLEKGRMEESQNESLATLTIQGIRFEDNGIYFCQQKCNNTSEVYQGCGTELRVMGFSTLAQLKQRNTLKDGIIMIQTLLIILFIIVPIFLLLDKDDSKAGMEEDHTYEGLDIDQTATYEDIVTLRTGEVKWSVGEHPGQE

B1: huMA79b graft variant, SEQ ID NO: 55 (Fab, name in Kabat numbering, V domains shown)
VH: EVQLVESGGGLVQPGGSLRLSCAASGYPFRSYWIQWVRQAPGKGLEWVGEILPGGGDTNYNEIFKGRFTISADTSKNTAYLQMNSLRAEDTAVYYCTRRVPVYFDYWGQGTLVTVSS
VL: DIQMTQSPSSLSASVGDRVTITCKASQSVDYDGDSFLNWYQQKPGKAPKLLIYAASNLESGVPSRFSGSGSGTDFTLTISSLQPEDFATYYCQQSNEDPLTFGQGTKVEIKR
B2: huMA79b graft variant, SEQ ID NO: 74 (Fab, name in Kabat numbering, V domains shown)
VH: EVQLVESGGGLVQPGGSLRLSCAASGYSFRRYWINWVRQAPGKGLEWVGEILPGGGDTNYNEIFKGRFTISADTSKNTAYLQMNSLRAEDTAVYYCTRRVPVYFDYWGQGTLVTVSS
VL: DIQMTQSPSSLSASVGDRVTITCKASQSVDYDGDSFLNWYQQKPGKAPKLLIYAASNLESGVPSRFSGSGSGTDFTLTISSLQPEDFATYYCQQSNEDPLTFGQGTKVEIKR
B3: huMA79b graft variant, SEQ ID NO: 68 (Fab, name in Kabat numbering, V domains shown)
VH: EVQLVESGGGLVQPGGSLRLSCAASGYGFTSYWISWVRQAPGKGLEWVGEILPGGGDTNYNEIFKGRFTISADTSKNTAYLQMNSLRAEDTAVYYCTRRVPVYFDYWGQGTLVTVSS
VL: DIQMTQSPSSLSASVGDRVTITCKASQSVDYDGDSFLNWYQQKPGKAPKLLIYAASNLESGVPSRFSGSGSGTDFTLTISSLQPEDFATYYCQQSNEDPLTFGQGTKVEIKR
B4: huMA79b graft variant, SEQ ID NO: 63 (Fab, name in Kabat numbering, V domains shown)
VH: EVQLVESGGGLVQPGGSLRLSCAASGYTFKKYWIEWVRQAPGKGLEWVGEILPGGGDTNYNEIFKGRFTISADTSKNTAYLQMNSLRAEDTAVYYCTRRVPVYFDYWGQGTLVTVSS
VL: DIQMTQSPSSLSASVGDRVTITCKASQSVDYDGDSFLNWYQQKPGKAPKLLIYAASNLESGVPSRFSGSGSGTDFTLTISSLQPEDFATYYCQQSNEDPLTFGQGTKVEIKR
B5: huMA79b graft variant, SEQ ID NO: 59 (Fab, name in Kabat numbering, V domains shown)
VH: EVQLVESGGGLVQPGGSLRLSCAASGYSFKSYWIEWVRQAPGKGLEWVGEILPGGGDTNYNEIFKGRFTISADTSKNTAYLQMNSLRAEDTAVYYCTRRVPVYFDYWGQGTLVTVSS
VL: DIQMTQSPSSLSASVGDRVTITCKASQSVDYDGDSFLNWYQQKPGKAPKLLIYAASNLESGVPSRFSGSGSGTDFTLTISSLQPEDFATYYCQQSNEDPLTFGQGTKVEIKR
B6: huMA79b graft variant, SEQ ID NO: 65 (Fab, name in Kabat numbering, V domains shown)
VH: EVQLVESGGGLVQPGGSLRLSCAASGYPFRRYWIEWVRQAPGKGLEWVGEILPGGGDTNYNEIFKGRFTISADTSKNTAYLQMNSLRAEDTAVYYCTRRVPVYFDYWGQGTLVTVSS
VL: DIQMTQSPSSLSASVGDRVTITCKASQSVDYDGDSFLNWYQQKPGKAPKLLIYAASNLESGVPSRFSGSGSGTDFTLTISSLQPEDFATYYCQQSNEDPLTFGQGTKVEIKR
B7: huMA79b graft variant, SEQ ID NO: 61 (Fab, name in Kabat numbering, V domains shown)
VH: EVQLVESGGGLVQPGGSLRLSCAASGYYFTSYWIEWVRQAPGKGLEWVGEILPGGGDTNYNEIFKGRFTISADTSKNTAYLQMNSLRAEDTAVYYCTRRVPVYFDYWGQGTLVTVSS
VL: DIQMTQSPSSLSASVGDRVTITCKASQSVDYDGDSFLNWYQQKPGKAPKLLIYAASNLESGVPSRFSGSGSGTDFTLTISSLQPEDFATYYCQQSNEDPLTFGQGTKVEIKR
B8: huMA79b graft variant, SEQ ID NO: 76 (Fab, name in Kabat numbering, V domains shown)
VH: EVQLVESGGGLVQPGGSLRLSCAASGYSFPSYWLQWVRQAPGKGLEWVGEILPGGGDTNYNEIFKGRFTISADTSKNTAYLQMNSLRAEDTAVYYCTRRVPVYFDYWGQGTLVTVSS
VL: DIQMTQSPSSLSASVGDRVTITCKASQSVDYDGDSFLNWYQQKPGKAPKLLIYAASNLESGVPSRFSGSGSGTDFTLTISSLQPEDFATYYCQQSNEDPLTFGQGTKVEIKR
B9: huMA79b graft variant, SEQ ID NO: 72 (Fab, name in Kabat numbering, V domains shown)
VH: EVQLVESGGGLVQPGGSLRLSCAASGYTFRRYWINWVRQAPGKGLEWVGEILPGGGDTNYNEIFKGRFTISADTSKNTAYLQMNSLRAEDTAVYYCTRRVPVYFDYWGQGTLVTVSS
VL: DIQMTQSPSSLSASVGDRVTITCKASQSVDYDGDSFLNWYQQKPGKAPKLLIYAASNLESGVPSRFSGSGSGTDFTLTISSLQPEDFATYYCQQSNEDPLTFGQGTKVEIKR
B10: huMA79b graft variant, SEQ ID NO: 56 (Fab, name in Kabat numbering, V domains shown)
VH: EVQLVESGGGLVQPGGSLRLSCAASGYPFTSYWINWVRQAPGKGLEWVGEILPGGGDTNYNEIFKGRFTISADTSKNTAYLQMNSLRAEDTAVYYCTRRVPVYFDYWGQGTLVTVSS
VL: DIQMTQSPSSLSASVGDRVTITCKASQSVDYDGDSFLNWYQQKPGKAPKLLIYAASNLESGVPSRFSGSGSGTDFTLTISSLQPEDFATYYCQQSNEDPLTFGQGTKVEIKR
B11: huMA79b graft variant, SEQ ID NO: 66 (Fab, name in Kabat numbering, V domains shown)
VH: EVQLVESGGGLVQPGGSLRLSCAASGYPVGRYWISWVRQAPGKGLEWVGEILPGGGDTNYNEIFKGRFTISADTSKNTAYLQMNSLRAEDTAVYYCTRRVPVYFDYWGQGTLVTVSS
VL: DIQMTQSPSSLSASVGDRVTITCKASQSVDYDGDSFLNWYQQKPGKAPKLLIYAASNLESGVPSRFSGSGSGTDFTLTISSLQPEDFATYYCQQSNEDPLTFGQGTKVEIKR
B12: huMA79b graft variant, SEQ ID NO: 64 (Fab, name in Kabat numbering, V domains shown)
VH: EVQLVESGGGLVQPGGSLRLSCAASGYPFTSYWIQWVRQAPGKGLEWVGEILPGGGDTNYNEIFKGRFTISADTSKNTAYLQMNSLRAEDTAVYYCTRRVPVYFDYWGQGTLVTVSS
VL: DIQMTQSPSSLSASVGDRVTITCKASQSVDYDGDSFLNWYQQKPGKAPKLLIYAASNLESGVPSRFSGSGSGTDFTLTISSLQPEDFATYYCQQSNEDPLTFGQGTKVEIKR
B13: huMA79b graft variant, SEQ ID NO: 58 (Fab, name in Kabat numbering, V domains shown)
VH: EVQLVESGGGLVQPGGSLRLSCAASGYTFNRYWINWVRQAPGKGLEWVGEILPGGGDTNYNEIFKGRFTISADTSKNTAYLQMNSLRAEDTAVYYCTRRVPVYFDYWGQGTLVTVSS
VL: DIQMTQSPSSLSASVGDRVTITCKASQSVDYDGDSFLNWYQQKPGKAPKLLIYAASNLESGVPSRFSGSGSGTDFTLTISSLQPEDFATYYCQQSNEDPLTFGQGTKVEIKR
B14: huMA79b graft variant, SEQ ID NO: 77 (Fab, name in Kabat numbering, V domains shown)
VH: EVQLVESGGGLVQPGGSLRLSCAASGYPFTRYWIEWVRQAPGKGLEWVGEILPGGGDTNYNEIFKGRFTISADTSKNTAYLQMNSLRAEDTAVYYCTRRVPVYFDYWGQGTLVTVSS
VL: DIQMTQSPSSLSASVGDRVTITCKASQSVDYDGDSFLNWYQQKPGKAPKLLIYAASNLESGVPSRFSGSGSGTDFTLTISSLQPEDFATYYCQQSNEDPLTFGQGTKVEIKR
B15: huMA79b graft variant, SEQ ID NO: 78 (Fab, name in Kabat numbering, V domains shown)
VH: EVQLVESGGGLVQPGGSLRLSCAASGYPFSGYWIEWVRQAPGKGLEWVGEILPGGGDTNYNEIFKGRFTISADTSKNTAYLQMNSLRAEDTAVYYCTRRVPVYFDYWGQGTLVTVSS
VL: DIQMTQSPSSLSASVGDRVTITCKASQSVDYDGDSFLNWYQQKPGKAPKLLIYAASNLESGVPSRFSGSGSGTDFTLTISSLQPEDFATYYCQQSNEDPLTFGQGTKVEIKR
B16: huMA79b graft variant, SEQ ID NO: 75 (Fab, name in Kabat numbering, V domains shown)
VH: EVQLVESGGGLVQPGGSLRLSCAASGYSFRRYWIEWVRQAPGKGLEWVGEILPGGGDTNYNEIFKGRFTISADTSKNTAYLQMNSLRAEDTAVYYCTRRVPVYFDYWGQGTLVTVSS
VL: DIQMTQSPSSLSASVGDRVTITCKASQSVDYDGDSFLNWYQQKPGKAPKLLIYAASNLESGVPSRFSGSGSGTDFTLTISSLQPEDFATYYCQQSNEDPLTFGQGTKVEIKR
B17: huMA79b graft variant, SEQ ID NO: 69 (Fab, name in Kabat numbering, V domains shown)
VH: EVQLVESGGGLVQPGGSLRLSCAASGYTFTSYWLSWVRQAPGKGLEWVGEILPGGGDTNYNEIFKGRFTISADTSKNTAYLQMNSLRAEDTAVYYCTRRVPVYFDYWGQGTLVTVSS
VL: DIQMTQSPSSLSASVGDRVTITCKASQSVDYDGDSFLNWYQQKPGKAPKLLIYAASNLESGVPSRFSGSGSGTDFTLTISSLQPEDFATYYCQQSNEDPLTFGQGTKVEIKR
B18: huMA79b graft variant, SEQ ID NO: 62 (Fab, name in Kabat numbering, V domains shown)
VH: EVQLVESGGGLVQPGGSLRLSCAASGYPFGRYWVNWVRQAPGKGLEWVGEILPGGGDTNYNEIFKGRFTISADTSKNTAYLQMNSLRAEDTAVYYCTRRVPVYFDYWGQGTLVTVSS
VL: DIQMTQSPSSLSASVGDRVTITCKASQSVDYDGDSFLNWYQQKPGKAPKLLIYAASNLESGVPSRFSGSGSGTDFTLTISSLQPEDFATYYCQQSNEDPLTFGQGTKVEIKR
B19: huMA79b graft variant, SEQ ID NO: 73 (Fab, name in Kabat numbering, V domains shown)
VH: EVQLVESGGGLVQPGGSLRLSCAASGYSFRSYWINWVRQAPGKGLEWVGEILPGGGDTNYNEIFKGRFTISADTSKNTAYLQMNSLRAEDTAVYYCTRRVPVYFDYWGQGTLVTVSS
VL: DIQMTQSPSSLSASVGDRVTITCKASQSVDYDGDSFLNWYQQKPGKAPKLLIYAASNLESGVPSRFSGSGSGTDFTLTISSLQPEDFATYYCQQSNEDPLTFGQGTKVEIKR
B20: huMA79b graft variant, SEQ ID NO: 71 (Fab, name in Kabat numbering, V domains shown)
VH: EVQLVESGGGLVQPGGSLRLSCAASGYTFSGYWINWVRQAPGKGLEWVGEILPGGGDTNYNEIFKGRFTISADTSKNTAYLQMNSLRAEDTAVYYCTRRVPVYFDYWGQGTLVTVSS
VL: DIQMTQSPSSLSASVGDRVTITCKASQSVDYDGDSFLNWYQQKPGKAPKLLIYAASNLESGVPSRFSGSGSGTDFTLTISSLQPEDFATYYCQQSNEDPLTFGQGTKVEIKR
B21: huMA79b graft variant, SEQ ID NO: 70 (S30T) (Fab, name in Kabat numbering, V domains shown)
VH: EVQLVESGGGLVQPGGSLRLSCAASGYTFTSYWIEWVRQAPGKGLEWVGEILPGGGDTNYNEIFKGRFTISADTSKNTAYLQMNSLRAEDTAVYYCTRRVPVYFDYWGQGTLVTVSS
VL: DIQMTQSPSSLSASVGDRVTITCKASQSVDYDGDSFLNWYQQKPGKAPKLLIYAASNLESGVPSRFSGSGSGTDFTLTISSLQPEDFATYYCQQSNEDPLTFGQGTKVEIKR

target: extracellular domain of human CD79b (huCD79becd) (human) (UniProt P40259); assay: phage selection on plate-bound antigen

binding, binds:
B1
B2
B3
B4
B5
B6
B7
B8
B9
B10
B11
B12
B13
B14
B15
B16
B17
B18
B19
B20
B21
